# The other results are listed elsewhere or left out. The main result of the screen is listed elsewhere. These columns were measured beside it and carry no call. Compounds called inactive in the main read-out are mostly missing here. Words in brackets tell the shape of the fitted curve; partial curves, single points and poor fits give uncertain potencies.
# Assay: qHTS Assay for Lipid Storage Modulators in Drosophila S3 Cells;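 on cell number change: cells counted by Cell Tracker Red CMTPX staining in the red channel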
# Settings: BODIPY lipid droplet fluorescence, 18-24 h; for cell number change: measured here: cell count max response, cells fed with added oleic acid
# Summary of the method: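 Drosophila S3 cells got compounds at several concentrations plus oleic acid (400 uM solution). Laser-scanning cytometry with 488 nm excitation read lipid droplets at 500-530 nm and cells at 575-640 nm. Percent activity was relative to 20 uM Triacsin C.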
# [1] = measured here: lipid fluorescence (Fed channel) AC50, cells fed with added oleic acid
# [2] = measured here: cell number channel AC50, cells fed with added oleic acid
SMILES,cell number change [%],AC50 [1],AC50 [2]
Cc1c(C(=O)NCC2CCCO2)oc2ccc(S(=O)(=O)N3CCCCC3)cc12 (configuration not stated),9.89,"11.6 µM [rising, partial curve]",
O=C(Nc1cccc(S(=O)(=O)NC2=NCCCCC2)c1)c1cc(-c2ccc(Cl)cc2)nc2ccccc12,14.4,"2.91 µM [rising, single point]",
O=C(N[C@@H](Cc1ccccc1)C(=O)N1CCC2(CC1)NCCc1[nH]cnc12)c1cccc(F)c1,,"0.116 µM [falling, single point]",
Clc1ccc(Sc2ccccn2)cc1,-35.8,,"25.9 µM [falling, single point]"
CCN1C(=O)[C@H]2[C@@H](c3ccc(-c4ccc(OC)cc4)cc3)N[C@@](Cc3ccccc3)(C(=O)OC)[C@H]2C1=O,-22.4,,"6.51 µM [falling, single point]"
COc1ccc(NC(=S)NC(C)c2ccncc2)cc1OC (configuration not stated),14.3,"20 µM [rising, single point]",
Cc1ccc(-c2nc3ccccc3o2)cc1NC(=O)Cc1cccs1,,"6.51 µM [falling, single point]",
CCOc1ncccc1C(=O)OCC(=O)N1c2ccccc2CC1C (configuration not stated),-1.1,"5.17 µM [rising, partial curve]",
O=C(CN1C(=O)c2cccc3cccc1c23)N1CCN(c2cccc(Cl)c2)CC1,-14.4,,
O=S(=O)(c1ccc(F)cc1)N1CN(Cc2ccco2)c2nc3ccccc3nc21,108,"1.84 µM [falling, partial curve]","20.6 µM [rising, single point]"
CCCNc1c(NC(C)=O)c(=O)oc2ccccc12,37.4,"4.61 µM [rising, full curve]","4.61 µM [rising, single point]"
Cc1c(O)nc(SCC(=O)Nc2cccc(C(F)(F)F)c2)n(-c2ccccc2)c1=O,2.31,"0.184 µM [falling, full curve, poor fit]",
Cc1ccc(-c2nn(-c3ccccc3)cc2/C=C/C(=O)Nc2nccs2)cc1,-28.1,"23.1 µM [falling, single point]",
COC(=O)c1cc(OC)c(OC)cc1NC(=O)Cc1cccs1,-7.59,"18.4 µM [falling, partial curve, poor fit]",
OCC[C@H]1C[C@H](O)[C@@H](O)[C@@]2(OCCCc3ccccc32)O1,-36.8,"9.2 µM [falling, partial curve, poor fit]","9.2 µM [falling, partial curve, poor fit]"
Cc1cc(-c2n[nH]c(=S)n2/N=C/c2cc([N+](=O)[O-])ccc2Cl)n[nH]1,-23.4,"29.1 µM [falling, single point]",
CCc1nc2c(c(=O)c3ccccc3n2C)c(=O)n1-c1ccc(F)cc1,9.44,,
COc1ccc(S(=O)(=O)NCc2ccc(C(=O)NCc3cccnc3)cc2)cc1,,"18.4 µM [rising, single point]","6.51 µM [rising, single point]"
COc1ccc(CCCC(=O)N/N=C/c2ccc(C)cc2)cc1,,"0.0291 µM [rising, full curve, poor fit]",
O=S(=O)(NCC(c1cccnc1)N1CCN(c2ccccc2F)CC1)c1cccs1 (configuration not stated),10.5,,

SMILES,cell number change [%],AC50 [1],AC50 [2]
Cc1ccn2nc(C(=O)OCC(=O)N(CC(C)C)C3CCS(=O)(=O)C3)nc2n1 (configuration not stated),-20.2,"0.461 µM [falling, full curve, poor fit]",
CCOC(=O)C1CCCN(c2c(NCCN3CCCCC3C)c(=O)c2=O)C1 (configuration not stated),-1.22,"0.0651 µM [falling, full curve, poor fit]",
COc1cc2cc(C(c3nnnn3C3CCCC3)N3CCCCCC3)c(=O)[nH]c2cc1OC (configuration not stated),,"1.46 µM [rising, partial curve]",
Cc1cc(=O)oc2cc(NC(=O)CCC(=O)O)ccc12,0.287,"0.326 µM [falling, single point]",
CC1CCN(c2nc(-c3ccncc3)nc3ccccc23)CC1,-52.7,"29.1 µM [falling, single point]","20.6 µM [falling, single point]"
Cc1cc(C)cc(NC(=O)CN2CCCN(S(=O)(=O)c3ccc(Br)s3)CC2)c1,64.9,"6.51 µM [rising, single point]","7.31 µM [rising, partial curve]"
N#Cc1cc(S(=O)(=O)N2CCOCC2)ccc1N1CCOCC1,2.05,,
Cc1ccc(CO/N=C/C2=C(Cl)c3ccccc3CC2)cc1,17.3,"20.6 µM [rising, partial curve]","0.058 µM [falling, full curve, poor fit]"
CCNC(=S)Nc1cc(C(=O)N2CCCC2)ccc1N1CCCC1,-26.1,"18.4 µM [falling, single point]","4.61 µM [falling, full curve, poor fit]"
Cc1ccccc1Nc1c(N)c(=O)oc2ccccc12,,"0.116 µM [falling, full curve, poor fit]","0.116 µM [falling, full curve, poor fit]"
COCc1c(Br)c(C)nc(OCC(=O)O)c1C#N,-232,"0.651 µM [falling, single point]","0.13 µM [falling, full curve, poor fit]"
COc1ccc(C(c2c(NC(=O)c3ccccc3)sc(C)c2C)N2CCN(CCO)CC2)cc1 (configuration not stated),62,,"9.2 µM [rising, partial curve]"
CCN(Cc1ccccc1)S(=O)(=O)c1cc(C(=O)c2c(N)n(C)c(=O)n(C)c2=O)ccc1OC,-28.7,"0.517 µM [falling, full curve, poor fit]",
CCCN1C(=O)/C(=C\C=C2/Sc3ccccc3N2CC)SC1=S,-13.2,"0.00461 µM [falling, full curve, poor fit]",
O=C1c2ccccc2C(Nc2ccc(F)cc2F)N1CCN1CCOCC1 (configuration not stated),13.1,"0.092 µM [rising, full curve, poor fit]",
CCCCN1C(=O)c2ccc(C(=O)Nc3ccc(C)c(S(=O)(=O)N(C)C)c3)cc2C1=O,-10.2,"29.1 µM [falling, single point]",
Cc1ccc(S(=O)(=O)CC(=O)Nc2cccc(C)n2)cc1,17.1,,
CCCn1nnc(NC(=O)c2cccc(OCC(C)C)c2)n1,-15.8,"25.9 µM [rising, single point]",
CCOC(=O)N1CCN(C(=O)CS(=O)(=O)Cc2nc(-c3cccc(OC)c3)oc2C)CC1,1.53,,
CCN(CC(=O)Nc1ccc(NC(C)=O)cc1)C(=O)c1oc2c(ccc3ccccc32)c1C,-16.8,"2.59 µM [rising, full curve]",

# Grouped by structure, the entries above containing an aryl methoxy group
SMILES,cell number change [%],AC50 [1],AC50 [2]
CCN1C(=O)[C@H]2[C@@H](c3ccc(-c4ccc(OC)cc4)cc3)N[C@@](Cc3ccccc3)(C(=O)OC)[C@H]2C1=O,-22.4,,"6.51 µM [falling, single point]"
COc1ccc(NC(=S)NC(C)c2ccncc2)cc1OC (configuration not stated),14.3,"20 µM [rising, single point]",
COC(=O)c1cc(OC)c(OC)cc1NC(=O)Cc1cccs1,-7.59,"18.4 µM [falling, partial curve, poor fit]",
COc1ccc(S(=O)(=O)NCc2ccc(C(=O)NCc3cccnc3)cc2)cc1,,"18.4 µM [rising, single point]","6.51 µM [rising, single point]"
COc1ccc(CCCC(=O)N/N=C/c2ccc(C)cc2)cc1,,"0.0291 µM [rising, full curve, poor fit]",
COc1cc2cc(C(c3nnnn3C3CCCC3)N3CCCCCC3)c(=O)[nH]c2cc1OC (configuration not stated),,"1.46 µM [rising, partial curve]",
COc1ccc(C(c2c(NC(=O)c3ccccc3)sc(C)c2C)N2CCN(CCO)CC2)cc1 (configuration not stated),62,,"9.2 µM [rising, partial curve]"
CCN(Cc1ccccc1)S(=O)(=O)c1cc(C(=O)c2c(N)n(C)c(=O)n(C)c2=O)ccc1OC,-28.7,"0.517 µM [falling, full curve, poor fit]",
CCOC(=O)N1CCN(C(=O)CS(=O)(=O)Cc2nc(-c3cccc(OC)c3)oc2C)CC1,1.53,,

# Ordered by heavy-atom count (rising): some entries from above.
SMILES,cell number change [%],AC50 [1],AC50 [2]
Cc1cc(=O)oc2cc(NC(=O)CCC(=O)O)ccc12,0.287,"0.326 µM [falling, single point]",
N#Cc1cc(S(=O)(=O)N2CCOCC2)ccc1N1CCOCC1,2.05,,
COc1ccc(C(c2c(NC(=O)c3ccccc3)sc(C)c2C)N2CCN(CCO)CC2)cc1 (configuration not stated),62,,"9.2 µM [rising, partial curve]"

# Continuation:

SMILES,cell number change [%],AC50 [1],AC50 [2]
Cc1cccc(CNC(=O)CCc2nnc(C3CCCCC3)o2)c1,6.37,,
CCSc1nc2nc(C)cc(C)n2n1,-1.12,,"6.51 µM [rising, single point]"
c1ccc(CCn2cnc3ccccc32)cc1,4.75,,"0.00461 µM [falling, full curve, poor fit]"
Cc1c(OCC(=O)NCC(O)c2ccccc2)ccc2c(-c3ccccc3)cc(=O)oc12 (configuration not stated),,"13 µM [falling, partial curve]",
CN(Cc1ccccc1)C(=O)c1ccc(NC(=O)C2=CSCCO2)cc1,-28.7,"29.1 µM [falling, single point]",
Cc1ccc(/C=C(\C#N)c2nc3ccccc3[nH]2)s1,-27.6,"1.03 µM [falling, full curve, poor fit]",
COc1ccc(Cl)cc1S(=O)(=O)N1CCC(C(=O)NCc2ccco2)CC1,-15.7,"0.231 µM [falling, full curve]",
O=C(CCc1nnc2n(Cc3ccc(F)cc3)c(=O)c3ccccc3n12)N1CCN(c2ccccn2)CC1,,"11.6 µM [falling, partial curve]",
Cc1ccc(SCCC(=O)NCc2ccncc2)cc1,22,"11.6 µM [rising, partial curve]",
CCCCn1nc(C(=O)N(CC)CC(=O)Nc2c(F)cccc2F)c2ccccc2c1=O,-6.56,"0.0651 µM [falling, full curve, poor fit]",
COc1ccccc1NC(=S)NCCN1CCOCC1,-4.26,"20.6 µM [falling, single point]",
CCOc1ccc(CNC(=O)Cn2ccc3cc(S(=O)(=O)N4CCCC4)ccc32)cc1,11,,
Cc1cc(N2CCN(c3ccccc3F)CC2)nc2cc(O)ccc12,3.56,"0.366 µM [rising, full curve, poor fit]",
COc1ccc(C(=O)NCc2cc(C)nc3ccccc23)cc1OC,15.6,"20.6 µM [rising, single point]",
Nc1nc(C23CC4CCC(CC(C4)C2)C3)cs1,-19.7,"32.6 µM [falling, partial curve, poor fit]",
O=C(CSc1nc2cc3ccccc3cc2[nH]1)Nc1ccc(F)cc1,-52.8,"32.6 µM [falling, single point]","29.1 µM [falling, single point]"
CCN(CC(=O)Nc1ccc(S(=O)(=O)N2CCOCC2)cc1)Cc1ccccc1,1.91,"3.26 µM [falling, single point]",
COc1ccc(-c2nc(CS(=O)(=O)CC(=O)NCCCN3CCN(C)CC3)c(C)o2)cc1,-11.1,,
Cc1ccc(S(=O)(=O)CCNC(=O)Cc2ccccc2)cc1,-38.4,,"29.1 µM [falling, single point]"
